Values of other authors as cited in patent publication EP0325010B1, “Non-digestible fat substitutes of low-caloric value” (ARCO Chemical Technology, L.P., priority 1988, dated 1989).
The name of at least one read-out is uncertain.

Settings: rat feeding trials

With adipostearin as the substance, how does the digested read?
Its digested is 58%.
